These results are taken from paper PMC4860824, “Targeting the γ-/β-secretase interaction reduces β-amyloid generation and ameliorates Alzheimer’s disease-related pathogenesis” (Cell Discovery, 2015).

The chains behind the UniProt entries cited, without tags or fusion partners. Residues count along the entry.
UniProt Q96BI3: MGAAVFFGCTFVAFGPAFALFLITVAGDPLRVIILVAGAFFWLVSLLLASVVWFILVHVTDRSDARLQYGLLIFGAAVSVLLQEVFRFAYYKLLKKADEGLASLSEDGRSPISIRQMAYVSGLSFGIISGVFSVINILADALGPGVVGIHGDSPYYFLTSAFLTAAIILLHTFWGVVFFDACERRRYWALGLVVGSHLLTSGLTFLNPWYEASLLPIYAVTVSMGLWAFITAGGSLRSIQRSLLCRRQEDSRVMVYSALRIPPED
UniProt Q09470: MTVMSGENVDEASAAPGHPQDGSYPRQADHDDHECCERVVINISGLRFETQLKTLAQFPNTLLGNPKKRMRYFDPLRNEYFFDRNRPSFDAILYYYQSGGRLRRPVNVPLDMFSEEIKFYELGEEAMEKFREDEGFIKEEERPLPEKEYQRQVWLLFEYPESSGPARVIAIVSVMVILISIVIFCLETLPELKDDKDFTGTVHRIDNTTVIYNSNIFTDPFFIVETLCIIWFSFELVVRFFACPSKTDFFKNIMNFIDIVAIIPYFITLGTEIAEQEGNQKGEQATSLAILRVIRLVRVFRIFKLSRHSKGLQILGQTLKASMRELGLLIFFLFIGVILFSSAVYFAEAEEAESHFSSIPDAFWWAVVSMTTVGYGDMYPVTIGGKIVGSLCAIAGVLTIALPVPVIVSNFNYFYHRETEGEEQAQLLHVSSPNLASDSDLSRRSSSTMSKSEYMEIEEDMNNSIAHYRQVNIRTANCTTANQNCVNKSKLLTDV
UniProt P56817, residues 46-501: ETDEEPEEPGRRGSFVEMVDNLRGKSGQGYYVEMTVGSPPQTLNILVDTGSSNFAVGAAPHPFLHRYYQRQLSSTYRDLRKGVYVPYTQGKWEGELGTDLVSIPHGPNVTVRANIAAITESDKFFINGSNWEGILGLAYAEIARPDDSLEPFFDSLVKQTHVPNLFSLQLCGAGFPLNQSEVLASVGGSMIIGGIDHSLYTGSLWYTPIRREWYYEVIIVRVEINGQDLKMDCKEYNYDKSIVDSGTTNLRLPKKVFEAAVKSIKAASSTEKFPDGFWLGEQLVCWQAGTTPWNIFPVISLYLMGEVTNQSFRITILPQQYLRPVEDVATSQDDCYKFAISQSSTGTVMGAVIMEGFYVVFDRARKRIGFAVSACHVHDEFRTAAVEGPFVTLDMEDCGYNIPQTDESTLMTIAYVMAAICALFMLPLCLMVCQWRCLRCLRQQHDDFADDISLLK

The target of test [1] is C-terminal Flag-tagged APH1aL (human) (UniProt Q96BI3). Kind of test: co-IP; HEK293T cells expressing PS1, Pen2, NCT, APH1aL-Flag and BACE1, treated with 3 μM XYT1032, UV-irradiated, lysed in 1% CHAPSO buffer, click reaction, anti-Flag resin, western blot. A general note: In western blotting, separated proteins are transferred to a membrane and probed.
For test [2] the target is unchanged. Put plainly: co-IP; as a4 but cells lysed in 1% Triton X-100 buffer; anti-Flag resin, western blot.
Another test has as its target Kv1.1-CTEV (UniProt Q09470). Kind of test: split reporter; split-TEV assay: -NTEV and -CTEV fusions co-transfected in HEK293MSR cells with ERT2-tev-LexA-Gal4 and a LexA-op luciferase reporter; luciferase read 24 h after transfection; also after 16 h with chemicals. In general terms: In a reporter assay the amount or activity of a reporter protein is the signal.

Results are given in words; binding and its absence hold for the method and conditions named. Binding seen in cells or lysates may run through a third protein. Some results given as binding are weak or reduced against the parent protein; the word gives no strength.

Consider BACE1 (from UniProt P56817 46-501), for which the binding entry is on record as “binds” in test [1] and “no binding (condition: 1% Triton X-100 extracts)” in test [2].

B1: NTEV-KvBeta1 (protein, UniProt Q14722 1-419)
chain: MLAARTGAAGSQISEENTKLRRQSGFSVAGKDKSPKKASENAKDSSLSPSGESQLRARQLALLREVEMNWYLKLCDLSSEHTTVCTTGMPHRNLGKSGLRVSCLGLGTWVTFGGQISDEVAERLMTIAYESGVNLFDTAEVYAAGKAEVILGSIIKKKGWRRSSLVITTKLYWGGKAETERGLSRKHIIEGLKGSLQRLQLEYVDVVFANRPDSNTPMEEIVRAMTHVINQGMAMYWGTSRWSAMEIMEAYSVARQFNMIPPVCEQAEYHLFQREKVEVQLPELYHKIGVGAMTWSPLACGIISGKYGNGVPESSRASLKCYQWLKERIVSEEGRKQQNKLKDLSPIAERLGCTLPQLAVAWCLRNEGVSSVLLGSSTPEQLIENLGAIQVLPKMTSHVVNEIDNILRNKPYSKKDYRS
For the molecule B1, the binding result with Kv1.1-CTEV is reported as “binds”.
